Experimental findings from PubChem BioAssay AID328 (DTP/NCI, 2004) are described below.

The test system of the test is BDF1 mice, P388 leukemia ip, median survival T/C. Nature of the test: NCI In Vivo Anticancer Drug Screen. Data for tumor model P388 Leukemia (intraperitoneal) in B6D2F1 (BDF1) mice. The note with it: T/C endpoint: median survival time, higher T/C = longer survival. Put shortly:
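In tumour-bearing mice, survival after compound treatment is set against the vehicle group and given as a quotient.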

The mark [1] stands for this setting: dose: 200.0 mg/kg/injection, schedule: Q01DX009 (ip), vehicle: saline with Tween-80.

Each structure is given as a SMILES string. The list shows only some results of the screen, not a fair sample: its compounds were picked by chemical class. Other doses and runs of a compound may be missing. T/C gives the treated animals as a percentage of the vehicle group. Some doses have a count of surviving animals in place of a T/C: the source holds a T/C of zero for them, seemingly a mark for toxic or unscored doses. Some survivor counts are full or nearly so, which does not show that the dose was tolerated: the source hardly ever lists a survival T/C far under the control, and the zero likely stands for such cases as well. Survivors were counted at the toxicity check, usually on the fifth day, unless a day is given; later deaths do not show. Schedule codes are those of the source, read here as Q, the interval in days (D) or hours (H), X, the number of doses. Where survival is the endpoint, the PubChem record calls one and a half times the control and up active, and a quarter to a half above the control has no call in these data; cut-offs in other NCI protocols can differ. Some T/C values are followed by the survivors on the day toxicity was checked, most often the fifth; without a count or a note in brackets, all were alive then. Some entries hold several experiments; the results are listed from low to high. Some T/C values are marked as having no survivor count here; that says nothing about deaths at the dose.

On to `CCOC(=O)CSc1c(N)c(C)nn1C.O=[N+]([O-])c1cc([N+](=O)[O-])c(O)c([N+](=O)[O-])c1`, for which the T/C by setting is: (dose: 3.12 mg/kg/injection, schedule: Q01DX009 (ip), vehicle: water) 108 % of control [survivor count not shown]; (dose: 6.25 mg/kg/injection, schedule: Q01DX009 (ip), vehicle: water) 92 % of control [survivor count not shown]; (dose: 12.5 mg/kg/injection, schedule: Q01DX009 (ip), vehicle: water) 101 % of control [survivor count not shown]; (dose: 12.5 mg/kg/injection, schedule: Q04DX003 (ip), vehicle: water) 93 % of control [survivor count not shown]; (dose: 25.0 mg/kg/injection, schedule: Q01DX009 (ip), vehicle: water) 97 % of control [survivor count not shown]; (dose: 25.0 mg/kg/injection, schedule: Q04DX003 (ip), vehicle: water) 98 % of control [survivor count not shown]. Further, the T/C runs as follows: (dose: 50.0 mg/kg/injection, schedule: Q01DX009 (ip), vehicle: water) 90 % of control [survivor count not shown]; (dose: 50.0 mg/kg/injection, schedule: Q04DX003 (ip), vehicle: water) 104 % of control [survivor count not shown]; (dose: 100.0 mg/kg/injection, schedule: Q01DX009 (ip), vehicle: water) 92 % of control [survivor count not shown]; (dose: 100.0 mg/kg/injection, schedule: Q04DX003 (ip), vehicle: water) 92 % of control [survivor count not shown]; (dose: 200.0 mg/kg/injection, schedule: Q04DX003 (ip), vehicle: water) 92 % of control [survivor count not shown].
For `COc1cc2c(c3oc4cccc(O)c4c(=O)c13)[C@@H]1C=CO[C@@H]1O2`, the T/C runs as follows: (dose: 3.75 mg/kg/injection, schedule: Q01DX009 (ip), vehicle: Klucel (hydroxypropylcellulose) (HPC)) 134 % of control; (dose: 7.5 mg/kg/injection, schedule: Q01DX009 (ip), vehicle: Klucel (hydroxypropylcellulose) (HPC)) 117, 142, 162 % of control; (dose: 15.0 mg/kg/injection, schedule: Q01DX009 (ip), vehicle: Klucel (hydroxypropylcellulose) (HPC)) 141, 211, 240 % of control; (dose: 30.0 mg/kg/injection, schedule: Q01DX009 (ip), vehicle: Klucel (hydroxypropylcellulose) (HPC)) 163, 174, 199 % of control [5 of 6 alive]; (dose: 60.0 mg/kg/injection, schedule: Q01DX009 (ip), vehicle: Klucel (hydroxypropylcellulose) (HPC)) 147, 163, 185 % of control; (dose: 120.0 mg/kg/injection, schedule: Q01DX009 (ip), vehicle: Klucel (hydroxypropylcellulose) (HPC)) 159 % of control [9 of 10 alive]. Under “dose: 240.0 mg/kg/injection, schedule: Q01DX009 (ip), vehicle: Klucel (hydroxypropylcellulose) (HPC)”, the T/C is 95 % of control. Also, the survivor count runs as follows: (dose: 15.0 mg/kg/injection, schedule: Q01DX009 (oral), vehicle: Klucel (hydroxypropylcellulose) (HPC)) 4 of 10; (dose: 30.0 mg/kg/injection, schedule: Q01DX009 (oral), vehicle: Klucel (hydroxypropylcellulose) (HPC)) 1 of 10; (dose: 60.0 mg/kg/injection, schedule: Q01DX009 (oral), vehicle: Klucel (hydroxypropylcellulose) (HPC)) 4 of 10; (dose: 120.0 mg/kg/injection, schedule: Q01DX009 (oral), vehicle: Klucel (hydroxypropylcellulose) (HPC)) 3 of 10; (dose: 240.0 mg/kg/injection, schedule: Q01DX009 (oral), vehicle: Klucel (hydroxypropylcellulose) (HPC)) 3 of 10; (dose: 480.0 mg/kg/injection, schedule: Q01DX009 (oral), vehicle: Klucel (hydroxypropylcellulose) (HPC)) 1 of 10.
Turning to `OC(CNCCCl)C(O)C(O)C(O)CNCCCl` (stereo unspecified), the T/C is, setting by setting: (dose: 3.13 mg/kg/injection, schedule: Q01DX010 (ip), vehicle: saline) 131 % of control; (dose: 6.25 mg/kg/injection, schedule: Q01DX010 (ip), vehicle: saline) 172 % of control; (dose: 12.5 mg/kg/injection, schedule: Q01DX010 (ip), vehicle: saline) 259 % of control; (dose: 15.0 mg/kg/injection, schedule: Q01DX010 (ip), vehicle: water) 109 % of control; (dose: 25.0 mg/kg/injection, schedule: Q01DX010 (ip), vehicle: saline) 118 % of control. Where the note is “dose: 30.0 mg/kg/injection, schedule: Q01DX010 (ip), vehicle: water”, the survivor count is 6 of 6.
Consider `Cc1ccc(S(=O)(=O)CN(CCCl)CCCl)cc1`, for which the T/C by setting is: (dose: 25.0 mg/kg/injection, schedule: Q01DX009 (ip), vehicle: saline with Tween-80) 111 % of control; (dose: 50.0 mg/kg/injection, schedule: Q01DX009 (ip), vehicle: saline with Tween-80) 155 and 170 % of control; (dose: 100.0 mg/kg/injection, schedule: Q01DX009 (ip), vehicle: saline with Tween-80) 193 and 207 % of control; under setting [1], 108 % of control. The survivor count under setting [1] was 5 of 6.
Turning to `CN(CCCl)CC1OC(O)C(O)C(O)C1O` (stereo unspecified), the T/C is 140 % of control [4 of 6 alive] (dose: 33.0 mg/kg/injection, schedule: Q01DX009 (ip), vehicle: saline sonified); 172 % of control (dose: 50.0 mg/kg/injection, schedule: Q01DX009 (ip), vehicle: saline sonified); 104 % of control [5 of 6 alive] (dose: 75.0 mg/kg/injection, schedule: Q01DX009 (ip), vehicle: saline sonified).
`Nc1ncnc2sc(SCCCl)nc12`: the T/C was 104 % of control (dose: 50.0 mg/kg/injection, schedule: Q04DX003 (ip), vehicle: saline with Tween-80) and 104 % of control (dose: 100.0 mg/kg/injection, schedule: Q04DX003 (ip), vehicle: saline with Tween-80). Besides, the survivor count (dose: 200.0 mg/kg/injection, schedule: Q04DX003 (ip), vehicle: saline with Tween-80) was 6 of 6.
